In PubChem BioAssay AID328 (DTP/NCI, 2004):
The list shows only some results of the screen, not a fair sample: it is rich in T/C values a quarter to a half above the control, in often repeated tests (any T/C) and in doses without a T/C. Other doses and runs of a compound stand elsewhere. T/C gives the treated animals as a percentage of the vehicle group. Some entries give survivors of the animals treated and no T/C: the source files T/C as zero there, which appears to mark a toxic dose or a test without result, not a measured value. Some doses without a T/C left all or most animals alive at the check, yet need not have been tolerated: survival well below the control is almost never listed, so the zero probably covers shortened survival too. Counts of survivors are from the toxicity check (mostly the fifth day) where no day follows; animals may have died later. Schedule codes are those of the source, taken here to give the interval after Q, in days (D) or hours (H), and the number of doses after X. For survival time, this PubChem deposit counts one and a half times the control or more as active, and values a quarter to a half above the control carry no call in these data; other NCI protocols may use other cut-offs. Brackets with × say how often a value occurs here. Some T/C values carry the count of animals alive at the toxicity check (mostly the fifth day); without a count, all were alive then.

System: BDF1 mice, P388 leukemia ip, median survival T/C
Assay: NCI In Vivo Anticancer Drug Screen. Data for tumor model P388 Leukemia (intraperitoneal) in B6D2F1 (BDF1) mice
Settings: higher T/C = longer survival
How it was run: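 Read-out is survival of treated animals expressed relative to the vehicle group, as a T/C ratio.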

[1] = T/C endpoint: median survival time, dose: 25.0 mg/kg/injection, schedule: Q01DX009 (ip), vehicle: Klucel (hydroxypropylcellulose) (HPC)

## Cc1c2cc3c(cc2cc2c4cc5c(cc4cc[n+]12)OCO5)OCO3 (tested in a mixture with another compound)
T/C endpoint: median survival time, dose: 0.88 mg/kg/injection, schedule: Q04DX003 (ip), vehicle: saline
  T/C: 136 % of control
T/C endpoint: median survival time, dose: 1.32 mg/kg/injection, schedule: Q04DX003 (ip), vehicle: saline
  T/C: 140 % of control
T/C endpoint: median survival time, dose: 2.0 mg/kg/injection, schedule: Q04DX003 (ip), vehicle: saline
  T/C: 145 % of control
T/C endpoint: median survival time, dose: 12.5 mg/kg/injection, schedule: Q01DX009 (ip), vehicle: saline
  survivor count: 6 of 6
T/C endpoint: median survival time, dose: 18.7 mg/kg/injection, schedule: Q04DX003 (ip), vehicle: saline
  T/C: 136 % of control

## Clc1nn2nnnc2c2ccccc12
T/C endpoint: median survival time, dose: 18.75 mg/kg/injection, schedule: Q01DX009 (ip), vehicle: saline with Tween-80
  survivor count: 7 of 7
T/C endpoint: median survival time, dose: 40.0 mg/kg/injection, schedule: Q01DX009 (ip), vehicle: saline with Tween-80
  T/C: 127 % of control [5 of 7 alive]
T/C endpoint: median survival time, dose: 75.0 mg/kg/injection, schedule: Q01DX009 (ip), vehicle: saline with Tween-80
  survivor count: 3 of 7

## CCCCCCCCCCCC(=O)CCCC
T/C endpoint: median survival time, dose: 400.0 mg/kg/injection, schedule: Q01DX009 (ip), vehicle: other
  survivor count: 6 of 6

## N#CC(=C1C=CC(=NO)C=C1)c1ccc(Cl)cc1
T/C endpoint: median survival time, dose: 200.0 mg/kg/injection, schedule: Q01DX009 (ip), vehicle: Klucel (hydroxypropylcellulose) (HPC)
  survivor count: 2 of 6
T/C endpoint: median survival time, dose: 400.0 mg/kg/injection, schedule: Q01DX009 (ip), vehicle: Klucel (hydroxypropylcellulose) (HPC)
  survivor count: 0 of 6

## COc1cccc2c1C(=O)c1c(O)c3c(c(O)c1C2=O)C[C@@](O)(/C(C)=N\O)C[C@@H]3OC1CC(N)C(O)C(C)O1 (some centres not stated)
T/C endpoint: median survival time, dose: 3.12 mg/kg/injection, schedule: Q01DX009 (ip), vehicle: water
  T/C: 134 % of control
T/C endpoint: median survival time, dose: 6.25 mg/kg/injection, schedule: Q01DX009 (ip), vehicle: water
  T/C: 127 % of control
T/C endpoint: median survival time, dose: 12.5 mg/kg/injection, schedule: Q01DX009 (ip), vehicle: water
  T/C: 148 % of control
T/C endpoint: median survival time, dose: 25.0 mg/kg/injection, schedule: Q01DX009 (ip), vehicle: water
  T/C: 145 % of control [5 of 6 alive]
T/C endpoint: median survival time, dose: 50.0 mg/kg/injection, schedule: Q01DX009 (ip), vehicle: water
  survivor count: 5 of 6

## NC(Cc1ccc(N(CCCl)CCCl)cc1)C(=O)O (configuration not stated)
T/C endpoint: median survival time, dose: 10.0 mg/kg/injection, schedule: Q01DX010 (ip), vehicle: saline
  T/C: 140 % of control

## CC1(C)C(=O)C(O)=CC2C1=CCC1C2(C)C(=O)CC2(C)C(C(C)(O)C(=O)CC(O)C(C)(C)O)C(O)CC12C (configuration not stated)
T/C endpoint: mean survival time, dose: 18.0 mg/kg/injection, schedule: Q01DX010 (ip), vehicle: carboxymethylcellulose (CMC)
  survivor count: 6 of 6

## CC(=O)NC(CCC(=O)C=[N+]=N)C(=O)O (configuration not stated)
T/C endpoint: median survival time, dose: 0.4 mg/kg/injection, schedule: Q01DX010 (ip), vehicle: other
  T/C: 136 % of control [5 of 6 alive]

## N#Cc1nc2c(nc1C#N)-c1ccccc1C2=O
[1]
  survivor count: 5 of 6

## CNC(=O)C(C)C1C(=O)/C(=C(O)/C=C/C(C)=C\C(C)C2OC3(C)OC(C=CC34CO4)C2C)C(=O)N1C1CCC(O)C(C)O1 (configuration not stated)
T/C endpoint: median survival time, dose: 100.0 mg/kg/injection, schedule: Q01DX009 (ip), vehicle: saline
  T/C: 131 % of control
T/C endpoint: median survival time, dose: 130.0 mg/kg/injection, schedule: Q01DX009 (ip), vehicle: Klucel (hydroxypropylcellulose) (HPC)
  survivor count: 3 of 6
T/C endpoint: median survival time, dose: 200.0 mg/kg/injection, schedule: Q01DX009 (ip), vehicle: saline
  T/C: 140 % of control
T/C endpoint: median survival time, dose: 300.0 mg/kg/injection, schedule: Q01DX009 (ip), vehicle: Klucel (hydroxypropylcellulose) (HPC)
  survivor count: 5 of 6

## CCCCSc1ncnc2nc[nH]c12
T/C endpoint: median survival time, dose: 400.0 mg/kg/injection, schedule: Q04DX003 (ip), vehicle: saline with Tween-80
  survivor count: 1 of 6

## N#CSCc1ccc(Cl)c(CSC#N)c1
T/C endpoint: median survival time, dose: 12.5 mg/kg/injection, schedule: Q04DX003 (ip), vehicle: Klucel (hydroxypropylcellulose) (HPC)
  T/C: 130 % of control
T/C endpoint: median survival time, dose: 18.0 mg/kg/injection, schedule: Q01DX009 (ip), vehicle: Klucel (hydroxypropylcellulose) (HPC)
  T/C: 130 % of control
[1]
  T/C: 130 % of control
T/C endpoint: median survival time, dose: 25.0 mg/kg/injection, schedule: Q04DX003 (ip), vehicle: Klucel (hydroxypropylcellulose) (HPC)
  T/C: 135 % of control
T/C endpoint: median survival time, dose: 50.0 mg/kg/injection, schedule: Q01DX009 (ip), vehicle: Klucel (hydroxypropylcellulose) (HPC)
  survivor count: 2 of 6
T/C endpoint: median survival time, dose: 50.0 mg/kg/injection, schedule: Q04DX003 (ip), vehicle: Klucel (hydroxypropylcellulose) (HPC)
  T/C: 135 % of control [4 of 6 alive]
T/C endpoint: median survival time, dose: 100.0 mg/kg/injection, schedule: Q04DX003 (ip), vehicle: Klucel (hydroxypropylcellulose) (HPC)
  survivor count: 1 of 6
T/C endpoint: median survival time, dose: 200.0 mg/kg/injection, schedule: Q04DX003 (ip), vehicle: Klucel (hydroxypropylcellulose) (HPC)
  survivor count: 0 of 6
T/C endpoint: median survival time, dose: 400.0 mg/kg/injection, schedule: Q04DX003 (ip), vehicle: Klucel (hydroxypropylcellulose) (HPC)
  survivor count: 1 of 6

## CN(C)CCCNC(=O)c1ccc2c(c1O)C(=O)c1ccccc1C2=O
T/C endpoint: median survival time, dose: 100.0 mg/kg/injection, schedule: Q01DX005 (ip), vehicle: saline
  survivor count: 6 of 6
T/C endpoint: median survival time, dose: 200.0 mg/kg/injection, schedule: Q01DX005 (ip), vehicle: saline
  survivor count: 0 of 6

## CC(=O)C[P+](c1ccccc1)(c1ccccc1)c1ccccc1
T/C endpoint: median survival time, dose: 200.0 mg/kg/injection, schedule: Q01DX001 (ip), vehicle: saline
  survivor count: 1 of 6
T/C endpoint: median survival time, dose: 400.0 mg/kg/injection, schedule: Q01DX001 (ip), vehicle: saline
  survivor count: 0 of 6

## C=C(Cl)CSC(=N)N
T/C endpoint: median survival time, dose: 75.0 mg/kg/injection, schedule: Q01DX009 (ip), vehicle: saline
  survivor count: 1 of 6
T/C endpoint: median survival time, dose: 150.0 mg/kg/injection, schedule: Q01DX009 (ip), vehicle: saline
  survivor count: 0 of 6
T/C endpoint: median survival time, dose: 300.0 mg/kg/injection, schedule: Q01DX009 (ip), vehicle: saline
  survivor count: 0 of 6

## C/C(=N/N)c1ccc(Br)cc1
T/C endpoint: median survival time, dose: 12.0 mg/kg/injection, schedule: Q01DX009 (ip), vehicle: saline with Tween-80
  survivor count: 6 of 6
T/C endpoint: median survival time, dose: 25.0 mg/kg/injection, schedule: Q01DX009 (ip), vehicle: saline with Tween-80
  survivor count: 5 of 6
T/C endpoint: median survival time, dose: 50.0 mg/kg/injection, schedule: Q01DX009 (ip), vehicle: saline with Tween-80
  survivor count: 0 of 6
T/C endpoint: median survival time, dose: 75.0 mg/kg/injection, schedule: Q04DX003 (ip), vehicle: saline with Tween-80
  T/C: 127 % of control (2×)
T/C endpoint: median survival time, dose: 100.0 mg/kg/injection, schedule: Q01DX009 (ip), vehicle: saline with Tween-80
  survivor count: 0 of 6

## CC(C)(C)CC(=O)OCCC[N+](C)(C)C
T/C endpoint: median survival time, dose: 100.0 mg/kg/injection, schedule: Q01DX009 (ip), vehicle: water
  survivor count: 2 of 4
